From PMC5514938
These are yes or no findings as the source states them, for the method shown. Binding seen in cells or lysates may run through a third protein. Some results given as binding are weak or reduced against the parent protein; the word gives no strength.

Protein sequences, listed by entry. Tags and fused reporters are not part of them.
UniProt Q8R4B8: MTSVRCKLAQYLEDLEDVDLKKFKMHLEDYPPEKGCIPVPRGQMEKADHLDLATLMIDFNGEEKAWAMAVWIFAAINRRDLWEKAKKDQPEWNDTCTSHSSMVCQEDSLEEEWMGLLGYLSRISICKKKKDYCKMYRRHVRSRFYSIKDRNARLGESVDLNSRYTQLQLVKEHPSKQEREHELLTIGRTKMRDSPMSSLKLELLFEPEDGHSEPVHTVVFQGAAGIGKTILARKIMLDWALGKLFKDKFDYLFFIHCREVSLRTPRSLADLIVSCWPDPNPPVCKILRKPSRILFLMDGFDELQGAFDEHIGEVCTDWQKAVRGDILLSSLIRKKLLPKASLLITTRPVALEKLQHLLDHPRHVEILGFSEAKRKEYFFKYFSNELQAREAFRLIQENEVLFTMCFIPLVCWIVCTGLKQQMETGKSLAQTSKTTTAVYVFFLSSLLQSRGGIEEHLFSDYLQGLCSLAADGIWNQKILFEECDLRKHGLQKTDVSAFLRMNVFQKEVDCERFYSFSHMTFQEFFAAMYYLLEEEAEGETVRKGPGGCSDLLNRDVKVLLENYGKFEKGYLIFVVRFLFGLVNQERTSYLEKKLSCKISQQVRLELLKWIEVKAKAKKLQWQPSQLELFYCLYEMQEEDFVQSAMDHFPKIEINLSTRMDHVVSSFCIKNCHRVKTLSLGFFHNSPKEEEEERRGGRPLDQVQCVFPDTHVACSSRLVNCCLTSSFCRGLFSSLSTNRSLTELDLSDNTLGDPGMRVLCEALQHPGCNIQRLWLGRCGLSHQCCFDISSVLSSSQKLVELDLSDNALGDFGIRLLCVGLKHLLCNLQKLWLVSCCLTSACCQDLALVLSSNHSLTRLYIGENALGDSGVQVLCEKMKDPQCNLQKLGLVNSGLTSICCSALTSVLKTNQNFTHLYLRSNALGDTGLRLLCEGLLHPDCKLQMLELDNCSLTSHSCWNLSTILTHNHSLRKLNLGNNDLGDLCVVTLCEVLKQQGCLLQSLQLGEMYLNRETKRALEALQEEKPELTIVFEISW

B1: Thioredoxin-interacting protein (protein, UniProt Q8BG60 1-397)
chain: MVMFKKIKSFEVVFNDPEKVYGSGEKVAGRVIVEVCEVTRVKAVRILACGVAKVLWMQGSQQCKQTLDYLRYEDTLLLEEQPTAGENEMVIMRPGNKYEYKFGFELPQGPLGTSFKGKYGCVDYWVKAFLDRPSQPTQEAKKNFEVMDLVDVNTPDLMAPVSAKKEKKVSCMFIPDGRVSVSARIDRKGFCEGDDISIHADFENTCSRIVVPKAAIVARHTYLANGQTKVFTQKLSSVRGNHIISGTCASWRGKSLRVQKIRPSILGCNILKVEYSLLIYVSVPGSKKVILDLPLVIGSRSGLSSRTSSMASRTSSEMSWIDLNIPDTPEAPPCYMDIIPEDHRLESPTTPLLDDVDDSQDSPIFMYAPEFQFMPPPTYTEVDPCVLNNNNNNNNVQ
B2: Caspase-1 (enzyme, UniProt P29452 1-402)
chain: MADKILRAKRKQFINSVSIGTINGLLDELLEKRVLNQEEMDKIKLANITAMDKARDLCDHVSKKGPQASQIFITYICNEDCYLAGILELQSAPSAETFVATEDSKGGHPSSSETKEEQNKEDGTFPGLTGTLKFCPLEKAQKLWKENPSEIYPIMNTTTRTRLALIICNTEFQHLSPRVGAQVDLREMKLLLEDLGYTVKVKENLTALEMVKEVKEFAACPEHKTSDSTFLVFMSHGIQEGICGTTYSNEVSDILKVDTIFQMMNTLKCPSLKDKPKVIIIQACRGEKQGVVLLKDSVRDSEEDFLTDAIFEDDGIKKAHIEKDFIAFCSSTPDNVSWRHPVRGSLFIESLIKHMKEYAWSCDLEDIFRKVRFSFEQPEFRLQMPTADRVTLTKRFYLFPGH

Experiments:
[1] = target: NACHT, LRR, and PYD domains-containing protein 3 (mouse (endogenous in Kupffer cells)) (UniProt Q8R4B8); test: co-IP; 500 ug of Kupffer cell lysate (IP lysis buffer) with 5 ug anti-NLRP3 antibody at 4°C overnight, Protein A magnetic beads, western blot; KCs from WT mice on MCD diet (NASH), from TXNIP-/- mice on HFD or MCD diet, and cultured WT KCs with or without palmitic acid (0.32 mM, 12 h)
[2] = target: NACHT, LRR, and PYD domains-containing protein 3 (mouse (endogenous in Kupffer cells)) (UniProt Q8R4B8); test: co-IP; as a1 (anti-NLRP3 antibody, Protein A magnetic beads, western blot), but KCs from WT mice on normal diet (normal group) or high-fat diet (NAFL group)

Binder	binding [1]	binding [2]
B1	binds	binds weakly
B2	binds	binds weakly
